Experimental data published in the supplement of paper PMC10849652.
Some of the results follow.

Sequences of proteins named here, by UniProt entry; tags and fusion partners are left off. A change or cut given only in a name is not applied to a line headed by its entry.
UniProt Q8IUR0, whole entry, looked up: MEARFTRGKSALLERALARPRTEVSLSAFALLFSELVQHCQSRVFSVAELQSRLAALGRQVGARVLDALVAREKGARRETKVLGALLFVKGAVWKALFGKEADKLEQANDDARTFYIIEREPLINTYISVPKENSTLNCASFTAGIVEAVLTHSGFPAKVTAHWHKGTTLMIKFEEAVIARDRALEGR
UniProt Q15643: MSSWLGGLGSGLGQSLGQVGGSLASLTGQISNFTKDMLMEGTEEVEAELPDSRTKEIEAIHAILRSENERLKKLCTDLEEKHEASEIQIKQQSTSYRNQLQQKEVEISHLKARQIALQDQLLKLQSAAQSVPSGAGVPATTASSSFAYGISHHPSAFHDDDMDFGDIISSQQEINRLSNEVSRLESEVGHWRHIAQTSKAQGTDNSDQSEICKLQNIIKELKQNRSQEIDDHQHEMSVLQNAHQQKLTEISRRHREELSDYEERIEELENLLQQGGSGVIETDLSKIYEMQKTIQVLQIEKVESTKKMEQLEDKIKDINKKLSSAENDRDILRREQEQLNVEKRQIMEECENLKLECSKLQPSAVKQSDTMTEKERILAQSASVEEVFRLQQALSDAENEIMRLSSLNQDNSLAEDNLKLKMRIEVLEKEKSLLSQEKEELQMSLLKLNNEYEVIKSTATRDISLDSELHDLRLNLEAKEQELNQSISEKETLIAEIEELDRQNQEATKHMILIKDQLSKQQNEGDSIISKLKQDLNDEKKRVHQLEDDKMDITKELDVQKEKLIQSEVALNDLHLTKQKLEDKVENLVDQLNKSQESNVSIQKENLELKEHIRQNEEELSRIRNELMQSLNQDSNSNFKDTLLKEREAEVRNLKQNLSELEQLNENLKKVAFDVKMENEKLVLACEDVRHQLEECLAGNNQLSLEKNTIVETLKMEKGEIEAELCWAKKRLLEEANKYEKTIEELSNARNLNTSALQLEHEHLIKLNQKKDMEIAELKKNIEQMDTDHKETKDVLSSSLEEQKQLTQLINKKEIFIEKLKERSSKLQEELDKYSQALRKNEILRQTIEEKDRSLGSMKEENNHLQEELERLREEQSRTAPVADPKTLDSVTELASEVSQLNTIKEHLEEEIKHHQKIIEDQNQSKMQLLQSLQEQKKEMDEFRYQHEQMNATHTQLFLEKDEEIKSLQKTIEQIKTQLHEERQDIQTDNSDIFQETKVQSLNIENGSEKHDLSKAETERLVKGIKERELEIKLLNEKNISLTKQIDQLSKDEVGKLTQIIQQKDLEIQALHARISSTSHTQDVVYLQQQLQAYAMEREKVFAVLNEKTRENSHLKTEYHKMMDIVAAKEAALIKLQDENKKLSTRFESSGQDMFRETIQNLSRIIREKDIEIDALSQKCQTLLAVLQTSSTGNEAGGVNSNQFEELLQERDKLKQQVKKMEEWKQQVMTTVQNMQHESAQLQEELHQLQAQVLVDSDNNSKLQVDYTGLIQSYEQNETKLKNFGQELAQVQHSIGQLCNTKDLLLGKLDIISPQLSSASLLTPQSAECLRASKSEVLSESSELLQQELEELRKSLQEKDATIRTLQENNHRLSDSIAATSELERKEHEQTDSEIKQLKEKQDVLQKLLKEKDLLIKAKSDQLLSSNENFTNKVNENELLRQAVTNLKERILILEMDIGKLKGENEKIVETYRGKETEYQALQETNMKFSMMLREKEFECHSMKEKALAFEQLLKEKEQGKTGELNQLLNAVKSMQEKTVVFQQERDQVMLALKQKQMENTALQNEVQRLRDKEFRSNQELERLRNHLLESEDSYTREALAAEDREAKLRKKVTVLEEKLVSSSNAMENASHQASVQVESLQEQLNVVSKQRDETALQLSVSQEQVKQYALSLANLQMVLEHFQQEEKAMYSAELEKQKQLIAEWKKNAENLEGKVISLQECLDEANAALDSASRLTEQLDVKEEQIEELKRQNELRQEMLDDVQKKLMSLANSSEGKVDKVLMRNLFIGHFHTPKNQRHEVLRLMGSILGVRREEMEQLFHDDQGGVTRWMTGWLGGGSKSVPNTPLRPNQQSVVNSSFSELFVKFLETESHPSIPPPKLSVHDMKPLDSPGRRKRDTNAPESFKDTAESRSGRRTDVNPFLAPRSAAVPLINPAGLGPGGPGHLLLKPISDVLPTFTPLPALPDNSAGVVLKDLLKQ
UniProt Q15642: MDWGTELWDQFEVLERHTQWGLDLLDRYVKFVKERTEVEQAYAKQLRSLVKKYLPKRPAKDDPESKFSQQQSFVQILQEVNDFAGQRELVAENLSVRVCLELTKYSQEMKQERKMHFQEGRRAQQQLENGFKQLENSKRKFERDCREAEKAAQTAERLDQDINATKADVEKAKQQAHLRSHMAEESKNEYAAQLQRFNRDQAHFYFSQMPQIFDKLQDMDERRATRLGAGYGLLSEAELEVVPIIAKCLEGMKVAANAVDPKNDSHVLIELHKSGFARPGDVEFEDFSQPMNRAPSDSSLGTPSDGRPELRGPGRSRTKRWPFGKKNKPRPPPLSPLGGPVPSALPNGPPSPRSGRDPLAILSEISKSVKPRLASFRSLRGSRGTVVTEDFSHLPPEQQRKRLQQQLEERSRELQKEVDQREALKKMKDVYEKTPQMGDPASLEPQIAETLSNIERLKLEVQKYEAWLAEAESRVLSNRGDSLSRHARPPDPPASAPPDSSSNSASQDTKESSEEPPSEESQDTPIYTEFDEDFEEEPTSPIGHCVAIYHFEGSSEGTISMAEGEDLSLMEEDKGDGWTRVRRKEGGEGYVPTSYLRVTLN
UniProt Q9UPN9: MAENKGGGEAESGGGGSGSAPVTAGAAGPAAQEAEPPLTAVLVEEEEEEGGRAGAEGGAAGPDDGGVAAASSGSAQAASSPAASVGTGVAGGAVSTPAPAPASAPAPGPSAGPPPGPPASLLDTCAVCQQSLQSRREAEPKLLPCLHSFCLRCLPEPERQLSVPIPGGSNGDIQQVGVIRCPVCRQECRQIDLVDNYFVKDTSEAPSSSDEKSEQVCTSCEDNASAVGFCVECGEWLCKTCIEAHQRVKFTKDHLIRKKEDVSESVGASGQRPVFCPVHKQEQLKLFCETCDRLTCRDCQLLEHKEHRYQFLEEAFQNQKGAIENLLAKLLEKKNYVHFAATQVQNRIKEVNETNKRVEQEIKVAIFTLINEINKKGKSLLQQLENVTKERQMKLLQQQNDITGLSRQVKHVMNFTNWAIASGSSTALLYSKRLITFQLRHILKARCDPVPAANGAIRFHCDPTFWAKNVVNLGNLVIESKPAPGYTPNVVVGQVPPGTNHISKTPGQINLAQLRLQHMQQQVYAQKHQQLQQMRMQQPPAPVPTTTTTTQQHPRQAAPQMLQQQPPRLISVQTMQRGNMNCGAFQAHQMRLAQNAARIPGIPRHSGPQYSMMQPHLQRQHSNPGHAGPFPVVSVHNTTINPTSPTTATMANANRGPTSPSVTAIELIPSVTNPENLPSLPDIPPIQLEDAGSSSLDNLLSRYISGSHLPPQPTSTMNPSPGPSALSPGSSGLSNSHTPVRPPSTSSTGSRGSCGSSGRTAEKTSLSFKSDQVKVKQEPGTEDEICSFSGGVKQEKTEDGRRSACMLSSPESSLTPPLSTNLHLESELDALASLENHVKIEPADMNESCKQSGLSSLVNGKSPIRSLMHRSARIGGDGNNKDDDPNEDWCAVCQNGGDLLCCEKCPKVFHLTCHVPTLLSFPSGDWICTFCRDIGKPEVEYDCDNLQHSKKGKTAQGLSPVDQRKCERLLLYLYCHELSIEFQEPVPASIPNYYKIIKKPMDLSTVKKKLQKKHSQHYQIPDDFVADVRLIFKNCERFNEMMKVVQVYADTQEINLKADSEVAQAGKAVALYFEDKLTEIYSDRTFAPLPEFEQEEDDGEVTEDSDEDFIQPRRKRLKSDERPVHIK
UniProt Q15714: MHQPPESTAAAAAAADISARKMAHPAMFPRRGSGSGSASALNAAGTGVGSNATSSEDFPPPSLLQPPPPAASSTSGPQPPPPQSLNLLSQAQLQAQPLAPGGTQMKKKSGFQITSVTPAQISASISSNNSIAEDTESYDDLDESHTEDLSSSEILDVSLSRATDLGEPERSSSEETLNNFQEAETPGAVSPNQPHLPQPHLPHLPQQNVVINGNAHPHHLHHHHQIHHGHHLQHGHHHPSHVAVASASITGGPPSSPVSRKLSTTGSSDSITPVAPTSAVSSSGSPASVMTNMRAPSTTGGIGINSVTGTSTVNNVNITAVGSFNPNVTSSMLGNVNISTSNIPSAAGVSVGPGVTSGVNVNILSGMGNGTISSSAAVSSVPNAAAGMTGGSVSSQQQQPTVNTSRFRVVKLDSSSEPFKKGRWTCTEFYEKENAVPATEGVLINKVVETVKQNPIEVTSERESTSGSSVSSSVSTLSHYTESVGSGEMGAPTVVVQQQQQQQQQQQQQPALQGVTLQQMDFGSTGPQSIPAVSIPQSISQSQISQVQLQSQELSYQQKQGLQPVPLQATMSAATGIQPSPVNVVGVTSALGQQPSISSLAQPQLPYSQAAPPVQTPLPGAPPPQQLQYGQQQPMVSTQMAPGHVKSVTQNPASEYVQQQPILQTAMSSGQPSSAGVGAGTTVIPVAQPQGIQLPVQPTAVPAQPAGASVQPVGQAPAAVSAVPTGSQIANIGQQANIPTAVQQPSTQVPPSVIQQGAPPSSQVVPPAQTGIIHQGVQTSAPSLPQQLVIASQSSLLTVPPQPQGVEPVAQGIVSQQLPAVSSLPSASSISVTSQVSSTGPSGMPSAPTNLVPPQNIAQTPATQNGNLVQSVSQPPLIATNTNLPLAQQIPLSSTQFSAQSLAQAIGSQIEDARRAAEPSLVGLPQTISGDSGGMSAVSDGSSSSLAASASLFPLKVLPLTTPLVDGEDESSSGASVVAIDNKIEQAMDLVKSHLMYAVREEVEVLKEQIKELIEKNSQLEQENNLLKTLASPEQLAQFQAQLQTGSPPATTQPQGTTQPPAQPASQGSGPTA
UniProt Q8TEL6: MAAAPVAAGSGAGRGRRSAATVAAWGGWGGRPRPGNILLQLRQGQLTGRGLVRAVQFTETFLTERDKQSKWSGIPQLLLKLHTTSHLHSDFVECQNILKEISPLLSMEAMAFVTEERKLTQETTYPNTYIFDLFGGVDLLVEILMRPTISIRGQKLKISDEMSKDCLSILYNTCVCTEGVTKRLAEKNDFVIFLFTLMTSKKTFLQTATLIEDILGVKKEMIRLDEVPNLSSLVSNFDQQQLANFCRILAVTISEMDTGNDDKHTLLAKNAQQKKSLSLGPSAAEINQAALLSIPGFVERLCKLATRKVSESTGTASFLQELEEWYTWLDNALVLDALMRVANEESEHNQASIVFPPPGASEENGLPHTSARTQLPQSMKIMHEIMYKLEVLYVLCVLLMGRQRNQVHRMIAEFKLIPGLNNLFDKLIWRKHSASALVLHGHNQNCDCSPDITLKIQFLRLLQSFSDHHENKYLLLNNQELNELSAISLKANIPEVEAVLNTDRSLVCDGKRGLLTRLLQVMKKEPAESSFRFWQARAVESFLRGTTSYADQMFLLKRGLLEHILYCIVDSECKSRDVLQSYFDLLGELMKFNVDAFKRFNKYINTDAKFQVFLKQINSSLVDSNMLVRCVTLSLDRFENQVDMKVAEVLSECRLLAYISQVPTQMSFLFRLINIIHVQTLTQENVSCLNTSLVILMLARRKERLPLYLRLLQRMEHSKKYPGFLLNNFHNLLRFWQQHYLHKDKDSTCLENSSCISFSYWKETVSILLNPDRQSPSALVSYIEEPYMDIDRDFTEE
UniProt Q14258, whole entry, looked up: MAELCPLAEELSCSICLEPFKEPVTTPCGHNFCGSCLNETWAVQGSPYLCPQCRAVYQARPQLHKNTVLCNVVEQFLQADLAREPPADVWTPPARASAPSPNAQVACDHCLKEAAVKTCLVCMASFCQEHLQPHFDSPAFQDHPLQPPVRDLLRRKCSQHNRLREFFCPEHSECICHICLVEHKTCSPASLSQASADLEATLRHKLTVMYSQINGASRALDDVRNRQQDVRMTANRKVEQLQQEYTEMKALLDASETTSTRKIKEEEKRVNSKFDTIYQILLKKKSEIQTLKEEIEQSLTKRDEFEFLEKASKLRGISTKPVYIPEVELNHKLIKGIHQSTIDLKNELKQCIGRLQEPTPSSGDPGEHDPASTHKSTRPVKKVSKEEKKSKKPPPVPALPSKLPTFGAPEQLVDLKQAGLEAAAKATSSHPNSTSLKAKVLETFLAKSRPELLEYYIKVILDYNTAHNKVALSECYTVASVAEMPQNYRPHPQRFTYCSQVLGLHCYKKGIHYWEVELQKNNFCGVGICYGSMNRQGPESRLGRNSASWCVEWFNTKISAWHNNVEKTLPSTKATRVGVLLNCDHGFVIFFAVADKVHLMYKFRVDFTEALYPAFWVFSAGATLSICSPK

What was measured:
Assay in all cases: log2 fold change, soluble protein after heating vs DMSO (PISA); higher = thermal stabilisation; K562 lysate, 10 uM; active = over 0.2 and 3.5 SD of the protein, either way, in both replicates (recomputed)
[1] = compound: Cc1cn(-c2cc(NC(=O)c3ccc(C)c(Nc4nccc(-c5cccnc5)n4)c3)cc(C(F)(F)F)c2)cn1 [nilotinib]
Procedure, shortened: (§1)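 Quantification was by TMTpro 16plex LC-MS/MS with equalised channel sums, applied to the supernatant after 21,000xg for 90 min. Samples were crude K562 extract at 1 mg/mL protein in PBS pH 7.4 with 1 mM MgCl2, treated with 10 μM compound for 30 min, heated for 3 min across 48°C-58°C, pooled and brought to 0.5% NP-40 at 4°C. Values are log-two fold changes in thermal stability relative to solvent controls, from duplicates.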

[2] = compound: Cc1nc(Nc2n[nH]c3c2CN(C(=O)N[C@H](CN(C)C)c2ccccc2)C3(C)C)c2sccc2n1
Procedure, shortened: as §1

[3] = compound: Cc1nc(Nc2ncc(C(=O)Nc3c(C)cccc3Cl)s2)cc(N2CCN(CCO)CC2)n1 [dasatinib]
Procedure, shortened: as §1

[4] = compound: Cc1ncc(-c2ccnc(Nc3ccc(S(C)(=O)=O)cc3)n2)n1C(C)C
Procedure, shortened: as §1

[5] = compound: Cn1cc(-c2ccc3c(c2)CCN3C(=O)Cc2cccc(C(F)(F)F)c2)c2c(N)ncnc21
Procedure, shortened: as §1

[6] = compound: Cn1cc(CNCC2CCN(c3ncc(C(=O)NO)cn3)CC2)c2ccccc21 [quisinostat]
Procedure, shortened: as §1

[7] = compound: Cn1cncc1[C@@](N)(c1ccc(Cl)cc1)c1ccc2c(c1)c(-c1cccc(Cl)c1)cc(=O)n2C [tipifarnib]
Procedure, shortened: as §1

[8] = compound: NC(=O)Nc1cc(-c2cccc(F)c2)sc1C(=O)N[C@H]1CCCNC1
Procedure, shortened: as §1

[9] = compound: NC(=O)c1cnc(N[C@@H]2CCCC[C@@H]2N)nc1Nc1cccc(-n2nccn2)c1
Procedure, shortened: as §1

[10] = compound: NC1(c2ccc(-c3nc4ccn5c(=O)[nH]nc5c4cc3-c3ccccc3)cc2)CCC1
Procedure, shortened: as §1

[11] = compound: NCC(=O)Nc1ccc(-n2nc(C(F)(F)F)cc2-c2ccc3c(ccc4ccccc43)c2)cc1
Procedure, shortened: as §1

[12] = compound: O=C(CCCCCCC(=O)Nc1ccccc1)NO [vorinostat]
Procedure, shortened: as §1

[13] = compound: O=C(O)c1ccc2c(c1)nc(Nc1cccc(Cl)c1)c1ccncc12 [silmitasertib]
Procedure, shortened: as §1

[14] = compound: O=C1NC(=O)C(c2cnc3ccccn23)=C1c1cn2c3c(cc(F)cc13)CN(C(=O)N1CCCCC1)CC2
Procedure, shortened: as §1

[15] = compound: c1cn2cc(-c3ccc4cn[nH]c4c3)nc(Nc3ccc(N4CCOCC4)cc3)c2n1 [entospletinib]
Procedure, shortened: as §1

Measured: log2 fold change

TRIM21 (UniProt P19474)
inactive: [1] -0.022 | [2] 0.079 | [3] -0.033 | [4] 0.073 | [5] 0.044 | [6] 0.028 | [7] 0.019 | [8] 0.044 | [9] 0.043 | [10] 0.069 | [11] 0.068 | [12] -0.379 | [13] 0.06 | [14] 0.024 | [15] -0.152

TRAPPC5 (UniProt Q8IUR0)
inactive: [1] -0.035 | [2] 0.008 | [3] -0.049 | [4] -0.056 | [5] 0.05 | [6] 0.01 | [7] 0.01 | [8] 0.022 | [9] 0.033 | [10] -0.001 | [11] 0.004 | [12] -0.123 | [13] 0.063 | [14] -0.072 | [15] 0.019

TST (UniProt Q16762)
inactive: [1] 0.036 | [2] 0.007 | [3] -0.012 | [4] -0.068 | [5] 0.021 | [6] 0 | [7] -0.026 | [8] 0.061 | [9] 0.012 | [10] 0.022 | [11] 0.002 | [12] -0.124 | [13] -0.018 | [14] -0.036 | [15] 0.016

TRAPPC12 (UniProt Q8WVT3)
active: [12] -0.258
inactive: [1] -0.007 | [2] 0.025 | [3] 0.024 | [4] -0.05 | [5] 0.038 | [6] 0.003 | [7] 0.039 | [8] -0.018 | [9] -0.007 | [10] 0.013 | [11] 0.032 | [13] 0.005 | [14] 0.043 | [15] -0.001

TRAPPC11 (UniProt Q7Z392)
inactive: [1] -0.01 | [2] 0.054 | [3] -0.028 | [4] 0.017 | [5] 0.028 | [6] -0.037 | [7] -0.017 | [8] 0.02 | [9] 0.01 | [10] -0.001 | [11] -0.017 | [12] -0.145 | [13] 0.027 | [14] 0.023 | [15] -0.014

TRIP11 (UniProt Q15643)
inactive: [1] 0.042 | [2] -0.019 | [3] 0.011 | [4] -0.03 | [5] 0.001 | [6] -0.027 | [7] -0.107 | [8] 0.055 | [9] 0.007 | [10] 0.001 | [11] -0.02 | [12] 0.073 | [13] -0.029 | [14] -0.032 | [15] -0.013

TTK (UniProt P33981)
inactive: [1] 0.007 | [2] 0.236 | [3] -0.014 | [4] 0.185 | [5] 0.013 | [6] -0.062 | [7] -0.147 | [8] 0.034 | [9] -0.001 | [10] -0.057 | [11] -0.009 | [12] -0.183 | [13] 0.004 | [14] -0.03 | [15] -0.039

TRMT1L (UniProt Q7Z2T5)
inactive: [1] -0.017 | [2] 0.002 | [3] -0.021 | [4] 0.095 | [5] -0.002 | [6] -0.043 | [7] -0.009 | [8] 0.029 | [9] 0.027 | [10] -0.018 | [11] -0.014 | [12] -0.175 | [13] 0.028 | [14] -0.03 | [15] 0.016

TRIP10 (UniProt Q15642)
inactive: [1] 0.024 | [2] 0 | [3] -0.037 | [4] 0.001 | [5] -0.014 | [6] -0.081 | [7] -0.018 | [8] -0.01 | [9] 0.017 | [10] -0.003 | [11] 0.012 | [12] 0.013 | [13] 0.017 | [14] -0.014 | [15] 0.042

TRMT2A (UniProt Q8IZ69)
active: [12] -0.366
inactive: [1] -0.034 | [2] -0.011 | [3] -0.018 | [4] -0.011 | [5] 0.013 | [6] -0.023 | [7] -0.007 | [8] 0.016 | [9] -0.002 | [10] -0.012 | [11] -0.012 | [13] 0.034 | [14] -0.007 | [15] 0.002

TRIM33 (UniProt H0Y612)
inactive: [1] -0.021 | [2] 0.153 | [3] 0.043 | [4] 0.138 | [5] -0.033 | [6] -0.238 | [7] -0.052 | [8] 0.069 | [9] -0.036 | [10] -0.106 | [11] -0.039 | [13] 0.061 | [14] 0.03 | [15] 0.084
active: [12] -0.335

TTC5 (UniProt Q8N0Z6)
inactive: [1] 0.012 | [2] -0.064 | [3] 0 | [4] -0.016 | [5] 0.047 | [6] -0.084 | [7] 0.01 | [8] 0 | [9] -0.007 | [10] 0.001 | [11] -0.003 | [13] -0.029 | [14] -0.018 | [15] 0.051
active: [12] -0.257

TRIM33 isoform 2 (UniProt Q9UPN9)
inactive: [1] 0.004 | [2] -0.012 | [3] -0.044 | [4] -0.015 | [5] 0.021 | [6] -0.035 | [7] 0.021 | [8] -0.01 | [9] 0.01 | [10] -0.025 | [11] -0.005 | [13] -0.026 | [14] -0.04 | [15] -0.024
active: [12] -0.393

TSNAX (UniProt Q99598)
inactive: [1] -0.006 | [2] 0.02 | [3] 0.008 | [4] -0.01 | [5] 0.023 | [6] -0.007 | [7] -0.007 | [8] -0.005 | [9] -0.012 | [10] 0.017 | [11] -0.008 | [12] 0.097 | [13] 0.007 | [14] -0.037 | [15] 0.012

TRAP1 (UniProt Q12931)
inactive: [1] 0.019 | [2] -0.007 | [3] -0.023 | [4] 0.012 | [5] 0.026 | [6] 0.087 | [7] 0.001 | [8] -0.014 | [9] -0.01 | [10] 0.042 | [11] 0.008 | [12] 0.039 | [13] 0.008 | [14] 0.005 | [15] -0.014

Fetched one by one from above (two):
TRAP1 (UniProt Q12931)
inactive: [1] 0.019 | [2] -0.007 | [3] -0.023 | [4] 0.012 | [5] 0.026 | [6] 0.087 | [7] 0.001 | [8] -0.014 | [9] -0.01 | [10] 0.042 | [11] 0.008 | [12] 0.039 | [13] 0.008 | [14] 0.005 | [15] -0.014

TRIM33 isoform 2 (UniProt Q9UPN9)
inactive: [1] 0.004 | [2] -0.012 | [3] -0.044 | [4] -0.015 | [5] 0.021 | [6] -0.035 | [7] 0.021 | [8] -0.01 | [9] 0.01 | [10] -0.025 | [11] -0.005 | [13] -0.026 | [14] -0.04 | [15] -0.024
active: [12] -0.393

Following part.

TSC22D1 (UniProt Q15714)
inactive: [1] -0.008 | [2] -0.028 | [3] 0.018 | [4] 0.024 | [5] 0.026 | [6] -0.022 | [7] -0.01 | [8] 0 | [9] -0.024 | [10] 0.013 | [11] 0.019 | [12] 0.093 | [13] -0.038 | [14] 0.012 | [15] 0.008

TTLL12 (UniProt Q14166)
active: [12] -0.426
inactive: [1] 0.015 | [2] -0.012 | [3] -0.028 | [4] -0.027 | [5] -0.006 | [6] -0.015 | [7] 0.008 | [8] 0.067 | [9] 0.001 | [10] -0.013 | [11] -0.021 | [13] 0.092 | [14] 0.02 | [15] 0.049

TRIM5 (UniProt Q9C035)
inactive: [1] 0.017 | [2] 0.227 | [3] 0.043 | [4] 0.009 | [5] -0.025 | [6] -0.052 | [7] -0.093 | [8] 0.054 | [9] -0.141 | [10] 0.036 | [11] 0.048 | [12] -0.23 | [13] 0.059 | [14] 0.001 | [15] -0.001

TRPC4AP (UniProt Q8TEL6)
inactive: [1] 0.115 | [2] -0.015 | [3] -0.021 | [4] -0.004 | [5] 0.078 | [6] -0.03 | [7] 0.016 | [8] 0 | [9] -0.037 | [10] 0.002 | [11] 0.082 | [12] -0.11 | [13] 0.011 | [14] 0.011 | [15] -0.021

TRIM25 (UniProt Q14258)
inactive: [1] 0.014 | [2] 0.027 | [3] -0.003 | [4] -0.001 | [5] -0.002 | [6] 0.002 | [7] -0.001 | [8] -0.001 | [9] -0.019 | [10] 0.023 | [11] 0.013 | [13] -0.046 | [14] -0.018 | [15] 0.011
active: [12] -0.59

TRIM23 (UniProt P36406)
inactive: [1] 0.107 | [2] -0.004 | [3] -0.005 | [4] -0.046 | [5] 0.136 | [6] -0.044 | [7] 0.023 | [8] 0.005 | [9] 0.072 | [10] 0.037 | [11] 0.064 | [12] 0.073 | [13] -0.03 | [14] -0.02 | [15] -0.032
